Measured values published in patent US20170291958A1, “Compositions and Methods For the Modulation of Ras Proteins” (NEW YORK UNIVERSITY, priority 2016, published 2017).
Results are given in words; binding and its absence hold for the method and conditions named. In cells and extracts the contact can be indirect. Some results given as binding are weak or reduced against the parent protein; the word gives no strength. Sequences can lack the tags named with a protein.

Legend:
[1] = target: K-RAS (Homo sapiens (Human)) (UniProt P01116); test: co-immunoprecipitation with anti-Flag antibody, blot
[2] = target: GFP-HRAS (Homo sapiens (Human)) (UniProt P01112); test: co-immunoprecipitation with anti-Flag antibody from HEK293T cells, anti-GFP blot

binding [1]: binds | binding [2]: binds
B1: Flag-PIASγ (enzyme, UniProt Q8N2W9 1-510, looked up, not shown: small tags and cut ends)
chain: MAAELVEAKNMVMSFRVSDLQMLLGFVGRSKSGLKHELVTRALQLVQFDCSPELFKKIKELYETRYAKKNSEPAPQPHRPLDPLTMHSTYDRAGAVPRTPLAGPNIDYPVLYGKYLNGLGRLPAKTLKPEVRLVKLPFFNMLDELLKPTELVPQNNEKLQESPCIFALTPRQVELIRNSRELQPGVKAVQVVLRICYSDTSCPQEDQYPPNIAVKVNHSYCSVPGYYPSNKPGVEPKRPCRPINLTHLMYLSSATNRITVTWGNYGKSYSVALYLVRQLTSSELLQRLKTIGVKHPELCKALVKEKLRLDPDSEIATTGVRVSLICPLVKMRLSVPCRAETCAHLQCFDAVFYLQMNEKKPTWMCPVCDKPAPYDQLIIDGLLSKILSECEDADEIEYLVDGSWCPIRAEKERSCSPQGAILVLGPSDANGLLPAPSVNGSGALGSTGGGGPVGSMENGKPGADVVDLTLDSSSSSEDEEEEEEEEEDEDEEGPRPKRRCPFQKGLVPAC
